Experimental data taken from patent publication US8945549B2, “Methods of treating antinociceptive tolerance” (Saint Louis University, priority 2010, dated 2015).
At least one structure is not confirmed: it was looked up by name or label, or the drawing left a doubt.

Key:
Assay type in all cases: in vivo, rat
[1] = system: Male Sprague Dawley rats; test: Paclitaxel-induced neuropathic pain (mechano-allodynia, mechano-hyperalgesia)
Experimental: Paclitaxel-Induced: Paclitaxcel-induced pain was studied by means of the well-characterized rat model developed by Bennett in which repeated intraperitoneal (i.p) injections of low doses of paclitaxel are administered to induce neuropathic pain (methano-allodynia and mechano-hyperalgesia) with little systemic toxicity or motor impairment (Polomano et al., Pain 94, 293-304 (2001)). The behavioral responses last for several weeks to months, thus modeling painful neuropathies in patients. Paclitaxel (Parentapharm. Yardley, Pa.) or its vehicle (Cremophor EL and 95% dehydrated ethanol in 1:1 ratio) was injected i.p in rats on four alternate days (day 0, 2, 4 and 6 with a final cumulative dose of 4 mg/kg). MnTE-2-PyP^5+, W146 (source), W140 (source) or their vehicle were delivered by intrathecal (i.th) injection (total volume of 10 μl followed by a 10 μl flush with sterile physiological saline) in rats chronically implanted with i.th cannulas using the L5/L6 lumbar approach, as described previously and Commonly used for drug delivery (Ramos et al. Neuroscience 169, 1888-1900 (2010); Schoeniger-Skinner, Brain Behav Immun 21, 660-667 (2007); Doyle, et al. Neurosci Lett (2010)). Drugs were injected 30 min before paclitaxel or its vehicle from day (D) 0 and then daily up to D15. In another set of experiments, Fingolimod (Fingolimod, Cayman Chemicals, Ann Arbor, Mich.) or its vehicle (1.2% ethanol in saline) were given by intraperitoneal injection (i.p., 0.2 ml) from D0 to D15; behavioral testing was carried out on D0 and at baseline and subsequently on D12, D16 and D22.
Behavioral testing: Baseline values were taken from all rats on day 0 Baseline. Drugs or vehicles under investigation were then given, followed 30 min later by a chemotherapeutic or vehicle. Behavioral testing was subsequently carried out on D12, D16 and D22.
Mechano-Allodynia and mechano-hyperalgesia: Mechanical withdrawal thresholds were assessed with an automated electronic version of the von Frey test (dynamic plantar aesthesiometer, model 37450; Ugo Basile, Milan, Italy). Each rat was placed in a Plexiglas chamber (28×40×35-cm, wire mesh floor) and allowed to acclimate for fifteen minutes. […] The pressure evoking a clear voluntary hind-paw withdrawal response (normally 40-45 g) was recorded automatically and taken as the mechanical threshold index. Mechanical threshold was assessed three times at each time point to yield a mean value, which is reported as mean absolute threshold (grams, g). […] Mechanical-hyperalgesia was assessed by the Randall and Sellitto paw pressure test 6 using an Ugo-Basile analgesiometer, which applies a linearly increasing mechanical force to the dorsum of the rat's hind paw. […]

[2] = system: Male Sprague Dawley rats; test: Oxaliplatin-induced neuropathic pain (mechano-allodynia, mechano-hyperalgesia)
[3] = system: rats; test: Carrageenan-induced thermal hyperalgesia
[4] = Fingolimod 0.01 mg/kg/d i.p., daily D0-D15
[5] = Fingolimod 0.01 mg/kg/d i.p, daily D0-D15

Compound: CCCCCCCCc1ccc(CCC(N)(CO)CO)cc1 [Fingolimod]
- development of paclitaxel-induced mechano-allodynia [1, 4]: attenuated
- development of paclitaxel-induced mechano-hyperalgesia [1, 4]: attenuated
- baseline withdrawal thresholds when given alone ([1]; Fingolimod alone, paclitaxel study): did not affect
- mechano-allodynia and mechano-hyperalgesia as tested on D22 upon drug termination on D15 ([1]; paclitaxel, Fingolimod 0.01 mg/kg/d i.p.): not re-instated
- development of oxaliplatin-induced mechano-allodynia [2, 5]: attenuated
- development of oxaliplatin-induced mechano-hyperalgesia [2, 5]: attenuated
- baseline withdrawal thresholds when given alone ([2]; Fingolimod alone, oxaliplatin study): did not affect
- mechano-allodynia and mechano-hyperalgesia as tested on D22 upon drug termination on D15 ([2]; oxaliplatin, Fingolimod 0.01 mg/kg/d i.p): not re-instated
- carrageenan-induced thermal hyperalgesia ([3]; 1 mg/kg given orally 90 min before carrageenan): blocked
- carrageenan-induced thermal hyperalgesia ([3]; oral 0.3 or 0.1 mg/kg, 90 min before carrageenan): blocked
